Taken from: PubChem BioAssay AID504804 (Drosophila RNAi Screening Center, 2011)
Aim: 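Fly genes whose loss lessens doxorubicin-driven cell death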 (primary screen). System: Drosophila Kc cells. Reagents: long dsRNA against Drosophila genes, 0.5 µg dsRNA per well. Time to read-out: 96 h (48 h knock-down, then 48 h drug). Treatment: doxorubicin 5 µg/ml for 48 h, added 48 h after dsRNA. Read-out: 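Luminescent ATP counts per replicate, not normalised, reflecting viable cells after 48 h dsRNA knock-down followed by 48 h of 5 µg/ml doxorubicin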. Reading the numbers: raw ATP luminescence: higher = more viable cells, protection from doxorubicin. Rule for the call: 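Active when both duplicate wells lie at least 2 SD above the plate mean and protection is confirmed by rescreening and independent dsRNAs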.
The deposit covers about 19,000 reagents; below is an unselected part of those with a known target gene and a result. Of all reagents, 47 (0.25%) got an active call. 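Signals are raw, not normalised; exact z-scores behind calls not deposited; actives needed confirmation, so some wells reaching 2 SD are inactive.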 A number with no mark means an inactive call.

Knock-down of Ddc (GeneID 35190) [DRSC03314] resulted in: raw ATP luminescence, replicate 1 = 64793; raw ATP luminescence, replicate 2 = 68877.
Est-P (GeneID 39393) [DRSC11163] showed raw ATP luminescence, replicate 1 = 79720; raw ATP luminescence, replicate 2 = 71480.
For CG33969 (GeneID 40252) [DRSC11777], the entry reads raw ATP luminescence, replicate 1 = 75957; raw ATP luminescence, replicate 2 = 66473.
Depletion of CG11251 (GeneID 39490) [DRSC09825] resulted in: SD above plate mean at least 3 SD above plate mean (active); raw ATP luminescence, replicate 1 = 1.33e5; raw ATP luminescence, replicate 2 = 1.42e5.
After knock-down of Gp210 (GeneID 35512) [DRSC04861], the record shows raw ATP luminescence, replicate 1 = 51117; raw ATP luminescence, replicate 2 = 46630.
Gp210 (GeneID 35512) [DRSC04900] gave raw ATP luminescence, replicate 1 = 78000; raw ATP luminescence, replicate 2 = 63233.
After knock-down of CG5808 (GeneID 42957) [DRSC14124] the results were raw ATP luminescence, replicate 1 = 38110; raw ATP luminescence, replicate 2 = 32163.
Depletion of CG30274 (GeneID 246521) [DRSC04171] gave: raw ATP luminescence, replicate 1 = 54877; raw ATP luminescence, replicate 2 = 56443.
Knock-down of SelT (GeneID 33725) [DRSC02732] came out at: raw ATP luminescence, replicate 1 = 84890; raw ATP luminescence, replicate 2 = 69800.
CalpC (GeneID 32597) [DRSC19873] showed raw ATP luminescence, replicate 1 = 3.15e5; raw ATP luminescence, replicate 2 = 2.93e5.
After knock-down of glu (GeneID 35001) [DRSC03539], the screen gave raw ATP luminescence, replicate 1 = 93667; raw ATP luminescence, replicate 2 = 75443.
CG33642 (GeneID 3771733) [DRSC01325] scored raw ATP luminescence, replicate 1 = 2.89e5; raw ATP luminescence, replicate 2 = 2.37e5.
Against mask (GeneID 50070) [DRSC15370], the values are raw ATP luminescence, replicate 1 = 63990; raw ATP luminescence, replicate 2 = 74490.
Depletion of mask (GeneID 50070) [DRSC16005] gave: raw ATP luminescence, replicate 1 = 49027; raw ATP luminescence, replicate 2 = 48967.
mask (GeneID 50070) [DRSC16018] scored raw ATP luminescence, replicate 1 = 64070; raw ATP luminescence, replicate 2 = 56410.
Knock-down of CG13539 (GeneID 37680) [DRSC04181] gave: raw ATP luminescence, replicate 1 = 42363; raw ATP luminescence, replicate 2 = 48850.
hlk (GeneID 46017) [DRSC05021] gave raw ATP luminescence, replicate 1 = 42813; raw ATP luminescence, replicate 2 = 56227.
Silencing of hlk (GeneID 46017) [DRSC05022] resulted in: raw ATP luminescence, replicate 1 = 51013; raw ATP luminescence, replicate 2 = 57060.
Against CG12985 (GeneID 32774) [DRSC19505] the deposit lists raw ATP luminescence, replicate 1 = 4.15e5; raw ATP luminescence, replicate 2 = 3.44e5.
Cp18 (GeneID 38998) [DRSC11120] showed raw ATP luminescence, replicate 1 = 82987; raw ATP luminescence, replicate 2 = 75680.
After knock-down of CG14034 (GeneID 33751) [DRSC02359], the record shows raw ATP luminescence, replicate 1 = 27737; raw ATP luminescence, replicate 2 = 32813.
With knock-down of Ir10a (GeneID 32067) [DRSC18891], the screen gave raw ATP luminescence, replicate 1 = 2.17e5; raw ATP luminescence, replicate 2 = 2.04e5.
For Ir10a (GeneID 32067) [DRSC19478], the values are raw ATP luminescence, replicate 1 = 3.62e5; raw ATP luminescence, replicate 2 = 3.40e5.
With knock-down of Ir10a (GeneID 32067) [DRSC19479], the screen gave raw ATP luminescence, replicate 1 = 3.31e5; raw ATP luminescence, replicate 2 = 3.47e5.
CG5984 (GeneID 43281) [DRSC15930] scored raw ATP luminescence, replicate 1 = 62090; raw ATP luminescence, replicate 2 = 46380.
Knock-down of swm (GeneID 35235) [DRSC02012] resulted in: raw ATP luminescence, replicate 1 = 83210; raw ATP luminescence, replicate 2 = 61707.
Against CG7202 (GeneID 40376) [DRSC11818] the deposit lists raw ATP luminescence, replicate 1 = 67447; raw ATP luminescence, replicate 2 = 62973.
Against Tre1 (GeneID 140439) [DRSC18726] the deposit lists raw ATP luminescence, replicate 1 = 37110; raw ATP luminescence, replicate 2 = 52920.
